The other results are listed elsewhere or left out.

The chains behind the UniProt entries cited, without tags or fusion partners. Where a name states a change or a piece, a line headed by the entry shows the natural chain unless it says otherwise.
UniProt Q9UH92: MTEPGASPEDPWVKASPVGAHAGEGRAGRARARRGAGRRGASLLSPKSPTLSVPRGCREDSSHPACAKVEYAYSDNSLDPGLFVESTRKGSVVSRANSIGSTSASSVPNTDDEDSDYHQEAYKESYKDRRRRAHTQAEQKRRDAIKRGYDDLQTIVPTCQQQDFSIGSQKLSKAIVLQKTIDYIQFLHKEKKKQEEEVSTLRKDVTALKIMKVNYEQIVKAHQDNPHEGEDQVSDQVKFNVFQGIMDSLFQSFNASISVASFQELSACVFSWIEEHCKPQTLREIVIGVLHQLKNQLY
UniProt P34949: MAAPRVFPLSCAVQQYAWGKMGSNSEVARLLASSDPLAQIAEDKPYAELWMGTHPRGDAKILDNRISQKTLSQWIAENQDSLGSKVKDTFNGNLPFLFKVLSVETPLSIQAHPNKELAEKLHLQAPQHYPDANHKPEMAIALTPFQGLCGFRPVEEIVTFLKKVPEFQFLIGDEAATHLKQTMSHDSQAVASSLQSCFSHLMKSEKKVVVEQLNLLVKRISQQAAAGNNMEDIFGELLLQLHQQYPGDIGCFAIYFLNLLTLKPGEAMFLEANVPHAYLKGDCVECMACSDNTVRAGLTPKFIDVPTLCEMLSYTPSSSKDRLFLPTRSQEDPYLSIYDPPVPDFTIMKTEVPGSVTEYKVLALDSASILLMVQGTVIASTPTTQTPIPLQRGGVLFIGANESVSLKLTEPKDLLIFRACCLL
UniProt Q9BU76: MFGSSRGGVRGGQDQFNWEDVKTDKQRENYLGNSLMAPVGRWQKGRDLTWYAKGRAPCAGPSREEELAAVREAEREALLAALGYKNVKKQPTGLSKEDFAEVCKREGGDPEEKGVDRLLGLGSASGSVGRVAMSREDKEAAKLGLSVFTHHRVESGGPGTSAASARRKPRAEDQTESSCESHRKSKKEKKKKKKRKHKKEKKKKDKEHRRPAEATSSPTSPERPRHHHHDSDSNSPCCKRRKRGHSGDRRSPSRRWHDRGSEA
UniProt O95297: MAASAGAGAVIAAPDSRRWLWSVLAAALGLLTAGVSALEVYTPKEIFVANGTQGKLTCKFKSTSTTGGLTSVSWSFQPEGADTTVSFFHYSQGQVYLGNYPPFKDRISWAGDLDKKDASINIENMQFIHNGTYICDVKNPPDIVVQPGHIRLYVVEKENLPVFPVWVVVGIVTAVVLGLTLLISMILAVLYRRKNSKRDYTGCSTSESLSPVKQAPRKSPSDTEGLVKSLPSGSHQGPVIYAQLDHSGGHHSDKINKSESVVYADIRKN
UniProt Q96PC5: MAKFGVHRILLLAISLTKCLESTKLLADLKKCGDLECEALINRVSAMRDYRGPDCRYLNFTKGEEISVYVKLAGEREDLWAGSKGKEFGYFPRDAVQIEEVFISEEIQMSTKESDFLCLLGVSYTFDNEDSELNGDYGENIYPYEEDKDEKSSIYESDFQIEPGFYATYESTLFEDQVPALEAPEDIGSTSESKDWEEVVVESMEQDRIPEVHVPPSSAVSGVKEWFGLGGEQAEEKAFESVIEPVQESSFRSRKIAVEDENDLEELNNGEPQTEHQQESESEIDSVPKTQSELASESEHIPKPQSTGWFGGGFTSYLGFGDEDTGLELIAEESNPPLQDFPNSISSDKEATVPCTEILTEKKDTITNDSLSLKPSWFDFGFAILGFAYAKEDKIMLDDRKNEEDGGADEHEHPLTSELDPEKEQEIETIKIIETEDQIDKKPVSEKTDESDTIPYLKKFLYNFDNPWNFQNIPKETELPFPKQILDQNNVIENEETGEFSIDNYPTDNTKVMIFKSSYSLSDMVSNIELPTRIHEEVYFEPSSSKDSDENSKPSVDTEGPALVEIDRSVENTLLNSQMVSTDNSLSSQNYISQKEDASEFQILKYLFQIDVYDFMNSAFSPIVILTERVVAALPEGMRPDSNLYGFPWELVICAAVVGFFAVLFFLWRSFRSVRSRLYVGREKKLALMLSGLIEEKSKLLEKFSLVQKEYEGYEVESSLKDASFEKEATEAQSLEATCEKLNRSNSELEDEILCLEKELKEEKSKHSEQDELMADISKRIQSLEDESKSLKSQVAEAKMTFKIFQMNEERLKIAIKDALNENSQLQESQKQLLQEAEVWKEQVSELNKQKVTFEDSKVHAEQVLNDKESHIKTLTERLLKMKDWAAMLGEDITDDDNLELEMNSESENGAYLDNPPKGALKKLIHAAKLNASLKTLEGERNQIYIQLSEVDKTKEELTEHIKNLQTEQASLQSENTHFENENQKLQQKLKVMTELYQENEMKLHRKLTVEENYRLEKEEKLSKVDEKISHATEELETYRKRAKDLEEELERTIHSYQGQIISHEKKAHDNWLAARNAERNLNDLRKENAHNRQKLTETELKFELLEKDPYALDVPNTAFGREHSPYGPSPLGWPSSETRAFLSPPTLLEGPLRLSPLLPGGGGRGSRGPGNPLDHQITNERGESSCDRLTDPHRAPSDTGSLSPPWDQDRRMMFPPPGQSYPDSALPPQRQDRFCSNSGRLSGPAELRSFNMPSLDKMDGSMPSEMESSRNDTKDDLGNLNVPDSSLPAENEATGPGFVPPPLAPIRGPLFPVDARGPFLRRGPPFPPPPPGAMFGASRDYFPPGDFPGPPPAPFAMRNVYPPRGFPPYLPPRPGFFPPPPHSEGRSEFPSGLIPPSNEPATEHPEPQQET
UniProt Q9UHC7: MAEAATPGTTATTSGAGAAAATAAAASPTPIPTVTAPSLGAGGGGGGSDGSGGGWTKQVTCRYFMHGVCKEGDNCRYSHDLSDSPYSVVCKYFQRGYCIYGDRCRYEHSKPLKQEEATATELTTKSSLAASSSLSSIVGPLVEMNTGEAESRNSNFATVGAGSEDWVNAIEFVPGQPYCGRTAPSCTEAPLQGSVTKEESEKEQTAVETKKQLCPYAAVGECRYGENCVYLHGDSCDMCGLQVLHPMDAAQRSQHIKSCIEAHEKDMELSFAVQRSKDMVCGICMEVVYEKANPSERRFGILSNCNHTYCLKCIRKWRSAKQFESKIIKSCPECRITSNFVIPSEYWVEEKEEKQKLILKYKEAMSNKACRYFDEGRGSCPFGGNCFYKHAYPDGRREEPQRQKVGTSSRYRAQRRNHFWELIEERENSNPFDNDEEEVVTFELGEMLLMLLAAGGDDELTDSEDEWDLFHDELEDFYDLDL
UniProt Q8N3F8: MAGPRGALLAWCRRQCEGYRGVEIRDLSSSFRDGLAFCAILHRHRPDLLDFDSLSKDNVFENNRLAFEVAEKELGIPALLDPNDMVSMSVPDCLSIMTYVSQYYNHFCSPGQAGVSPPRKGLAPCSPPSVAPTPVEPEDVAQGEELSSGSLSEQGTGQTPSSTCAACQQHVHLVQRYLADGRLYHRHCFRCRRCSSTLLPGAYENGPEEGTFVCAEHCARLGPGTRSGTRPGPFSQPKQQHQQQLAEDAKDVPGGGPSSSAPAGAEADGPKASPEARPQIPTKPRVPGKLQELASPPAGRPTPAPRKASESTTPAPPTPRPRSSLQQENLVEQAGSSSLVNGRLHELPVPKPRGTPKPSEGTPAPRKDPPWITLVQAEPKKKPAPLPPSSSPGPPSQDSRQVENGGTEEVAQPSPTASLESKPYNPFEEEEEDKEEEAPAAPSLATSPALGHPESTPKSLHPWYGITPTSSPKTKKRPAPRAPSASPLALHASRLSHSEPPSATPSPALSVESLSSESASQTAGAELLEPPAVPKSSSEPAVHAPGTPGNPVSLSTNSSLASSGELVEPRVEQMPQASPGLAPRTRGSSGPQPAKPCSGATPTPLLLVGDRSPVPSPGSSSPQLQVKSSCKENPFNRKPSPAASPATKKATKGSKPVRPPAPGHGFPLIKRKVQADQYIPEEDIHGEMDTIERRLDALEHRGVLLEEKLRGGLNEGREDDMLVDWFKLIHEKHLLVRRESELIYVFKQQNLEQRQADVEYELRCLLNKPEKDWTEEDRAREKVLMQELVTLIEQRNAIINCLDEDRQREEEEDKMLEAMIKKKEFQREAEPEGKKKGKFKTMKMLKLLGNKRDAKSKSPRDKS
UniProt Q9NXC5: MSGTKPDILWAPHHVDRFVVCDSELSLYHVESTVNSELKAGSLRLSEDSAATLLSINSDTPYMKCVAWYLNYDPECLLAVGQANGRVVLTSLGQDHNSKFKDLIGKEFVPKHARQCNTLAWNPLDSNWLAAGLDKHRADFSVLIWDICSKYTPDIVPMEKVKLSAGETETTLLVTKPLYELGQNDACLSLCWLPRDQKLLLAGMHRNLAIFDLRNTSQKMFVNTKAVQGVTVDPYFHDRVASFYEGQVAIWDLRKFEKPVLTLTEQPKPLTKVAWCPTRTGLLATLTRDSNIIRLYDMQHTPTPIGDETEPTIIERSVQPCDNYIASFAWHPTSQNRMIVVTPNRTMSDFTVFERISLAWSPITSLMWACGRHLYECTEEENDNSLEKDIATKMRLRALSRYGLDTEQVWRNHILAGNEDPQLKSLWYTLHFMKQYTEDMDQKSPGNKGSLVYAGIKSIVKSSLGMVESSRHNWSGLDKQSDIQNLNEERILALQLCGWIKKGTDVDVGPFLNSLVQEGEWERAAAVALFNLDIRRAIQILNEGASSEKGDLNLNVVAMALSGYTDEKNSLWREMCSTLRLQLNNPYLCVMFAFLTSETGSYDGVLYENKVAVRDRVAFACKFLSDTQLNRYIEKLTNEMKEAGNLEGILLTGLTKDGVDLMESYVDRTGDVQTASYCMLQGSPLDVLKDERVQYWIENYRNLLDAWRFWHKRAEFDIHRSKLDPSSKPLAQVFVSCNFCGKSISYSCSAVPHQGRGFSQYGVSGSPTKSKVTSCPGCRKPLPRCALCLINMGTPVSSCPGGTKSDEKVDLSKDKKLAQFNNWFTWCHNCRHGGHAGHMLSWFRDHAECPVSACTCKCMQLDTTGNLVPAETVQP
UniProt P22033: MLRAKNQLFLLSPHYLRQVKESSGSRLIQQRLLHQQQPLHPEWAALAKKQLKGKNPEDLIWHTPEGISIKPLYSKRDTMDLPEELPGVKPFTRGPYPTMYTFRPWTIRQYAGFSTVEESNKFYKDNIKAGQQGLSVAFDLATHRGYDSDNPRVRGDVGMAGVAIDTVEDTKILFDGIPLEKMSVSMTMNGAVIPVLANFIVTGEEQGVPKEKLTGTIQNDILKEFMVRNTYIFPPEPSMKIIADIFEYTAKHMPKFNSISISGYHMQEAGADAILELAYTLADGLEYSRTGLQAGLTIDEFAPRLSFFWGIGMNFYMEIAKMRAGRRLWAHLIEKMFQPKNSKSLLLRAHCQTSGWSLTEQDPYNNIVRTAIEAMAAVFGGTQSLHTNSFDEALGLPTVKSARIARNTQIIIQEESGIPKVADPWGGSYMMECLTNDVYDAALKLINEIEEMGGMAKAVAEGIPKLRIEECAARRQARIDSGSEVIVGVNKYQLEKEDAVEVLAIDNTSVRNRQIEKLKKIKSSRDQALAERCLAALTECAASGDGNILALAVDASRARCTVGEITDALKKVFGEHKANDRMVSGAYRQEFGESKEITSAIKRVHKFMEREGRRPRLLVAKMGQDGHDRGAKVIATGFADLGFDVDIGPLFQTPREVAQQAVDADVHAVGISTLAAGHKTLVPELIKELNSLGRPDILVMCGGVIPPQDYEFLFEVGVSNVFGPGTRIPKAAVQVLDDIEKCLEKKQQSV
UniProt Q96EY8: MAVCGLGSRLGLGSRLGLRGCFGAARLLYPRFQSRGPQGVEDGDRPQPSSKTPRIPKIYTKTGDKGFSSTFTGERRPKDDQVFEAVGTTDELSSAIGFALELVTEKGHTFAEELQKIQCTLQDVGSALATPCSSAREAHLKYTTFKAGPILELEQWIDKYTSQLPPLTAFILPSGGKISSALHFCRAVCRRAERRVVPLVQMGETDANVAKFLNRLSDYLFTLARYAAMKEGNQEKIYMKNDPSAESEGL
UniProt O14880: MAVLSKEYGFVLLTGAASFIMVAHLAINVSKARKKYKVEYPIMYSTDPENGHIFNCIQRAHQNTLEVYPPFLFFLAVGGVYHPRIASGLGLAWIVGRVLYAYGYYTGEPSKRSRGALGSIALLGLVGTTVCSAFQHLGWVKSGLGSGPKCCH
UniProt Q9UNW1: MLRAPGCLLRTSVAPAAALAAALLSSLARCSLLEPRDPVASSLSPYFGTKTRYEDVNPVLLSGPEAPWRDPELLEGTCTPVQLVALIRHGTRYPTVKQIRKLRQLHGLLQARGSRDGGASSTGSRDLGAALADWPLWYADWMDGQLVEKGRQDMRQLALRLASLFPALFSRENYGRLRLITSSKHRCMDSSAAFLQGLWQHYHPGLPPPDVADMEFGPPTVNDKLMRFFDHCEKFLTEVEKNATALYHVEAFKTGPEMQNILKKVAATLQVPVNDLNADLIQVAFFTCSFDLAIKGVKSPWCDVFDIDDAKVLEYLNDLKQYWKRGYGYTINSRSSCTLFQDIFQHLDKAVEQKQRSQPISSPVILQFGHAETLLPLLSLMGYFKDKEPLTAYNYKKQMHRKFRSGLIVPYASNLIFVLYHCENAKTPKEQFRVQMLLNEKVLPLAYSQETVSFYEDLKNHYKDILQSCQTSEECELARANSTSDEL

Compound in this assay: CC[C@@H]1C(=O)N(C)c2cnc(Nc3ccc(C(=O)NC4CCN(C)CC4)cc3OC)nc2N1C1CCCC1
In words: log2 fold change, soluble protein after heating vs DMSO (PISA); higher = thermal stabilisation; K562 lysate, 10 uM; active = over 0.2 and 3.5 SD of the protein, either way, in both replicates (recomputed). The method in brief: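 The values are log-two fold changes in thermal stability compared with solvent controls and come from duplicates. They were obtained by TMTpro 16plex LC-MS/MS, with channel sums equalised, on the supernatant after 21,000xg for 90 min. That supernatant came from crude K562 extract at 1 mg/mL protein treated with 10 μM compound for 30 min, heated for 3 min across 48°C-58°C, pooled and brought to 0.5% NP-40 at 4°C.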
As for MGST1 (UniProt P10620), the log2 fold change is inactive: 0.097.
On to MRI1 (UniProt Q9BV20), for which the log2 fold change was inactive: -0.024.
The value for MOB4 (UniProt Q9Y3A3) was inactive: -0.052; that for MKNK1 (UniProt Q9BUB5) was inactive: 0.036; that for MIF4GD isoform 3 (UniProt A9UHW6) was inactive: -0.019.
Under MRPL1 (UniProt Q9BYD6) stands inactive: -0.035; under MLX (UniProt Q9UH92), inactive: -0.079.
Under MPI (UniProt P34949) stands inactive: 0.014.
Take MRGBP (UniProt Q9NV56): the log2 fold change was inactive: -0.181.
Under MMTAG2 (UniProt Q9BU76) stands inactive: 0.061; under MPZL1 (UniProt O95297), inactive: 0.057; under MRPL23 (UniProt Q16540), inactive: 0.085.
Under MPST isoform 2 (UniProt P25325) stands inactive: 0.026; under MRPL15 (UniProt Q9P015), inactive: 0.024; under MICOS10 (UniProt Q5TGZ0), inactive: -0.091.
Under MIA2 (UniProt Q96PC5) stands inactive: 0.017.
In the case of MKI67 (UniProt P46013), the log2 fold change is inactive: 0.042.
In the case of MKRN1 (UniProt Q9UHC7), the log2 fold change was inactive: -0.008.
In the case of MRPL14 (UniProt Q6P1L8), the log2 fold change is inactive: 0.032.
Under MICALL1 (UniProt Q8N3F8) stands inactive: -0.004; under MICALL2 (UniProt Q8IY33), inactive: 0.078.
On to MINDY3 (UniProt Q9H8M7), for which the log2 fold change was inactive: -0.05.
The value for MPP1 (UniProt Q00013) was inactive: 0.001; that for MON2 isoform 5 (UniProt Q7Z3U7) was inactive: -0.029; that for MORF4L1 isoform 2 (UniProt Q9UBU8) was inactive: 0.016.
The value for MPC2 (UniProt O95563) was inactive: 0.067.
The value for MIOS (UniProt Q9NXC5) was inactive: -0.037.
On to MKRN2 (UniProt Q9H000), for which the log2 fold change was inactive: -0.041.
The value for MMUT (UniProt P22033) was inactive: 0.002; that for MORC2 (UniProt Q9Y6X9) was inactive: 0.022; that for MMAB (UniProt Q96EY8) was inactive: -0.009.
As to MRPL19 (UniProt P49406), the log2 fold change was inactive: -0.139.
Under MRM3 (UniProt Q9HC36) stands inactive: 0.016.
Under MORF4L2 (UniProt Q15014) stands inactive: 0.067; under MLXIP (UniProt Q9HAP2), inactive: -0.032; under MGST3 (UniProt O14880), inactive: 0.078.
Under MINPP1 (UniProt Q9UNW1) stands inactive: 0.018.
In the case of MOV10 (UniProt Q9HCE1), the log2 fold change was inactive: -0.004.

The values above are taken from the supplement of paper PMC10849652.
